The target in assay [1] is human ST2L extracellular domain with C-terminal His6 tag (human) (UniProt Q01638). In words: MSD electrochemiluminescence competition assay on plate-coated ST2L-ECD; unlabeled antibody titrated against 10 nM sulfo-tag labeled C2494.
Assay [2] has the same target. Put plainly: binding to human/mouse chimeras.
Assay [3] has the same target. The assay is described as described for the competition assays.

Protein sequences, listed by entry. Tags and fused reporters are not part of them. Lines headed by an entry give the natural chain unless they say otherwise; changes in a name come on top.
UniProt Q01638: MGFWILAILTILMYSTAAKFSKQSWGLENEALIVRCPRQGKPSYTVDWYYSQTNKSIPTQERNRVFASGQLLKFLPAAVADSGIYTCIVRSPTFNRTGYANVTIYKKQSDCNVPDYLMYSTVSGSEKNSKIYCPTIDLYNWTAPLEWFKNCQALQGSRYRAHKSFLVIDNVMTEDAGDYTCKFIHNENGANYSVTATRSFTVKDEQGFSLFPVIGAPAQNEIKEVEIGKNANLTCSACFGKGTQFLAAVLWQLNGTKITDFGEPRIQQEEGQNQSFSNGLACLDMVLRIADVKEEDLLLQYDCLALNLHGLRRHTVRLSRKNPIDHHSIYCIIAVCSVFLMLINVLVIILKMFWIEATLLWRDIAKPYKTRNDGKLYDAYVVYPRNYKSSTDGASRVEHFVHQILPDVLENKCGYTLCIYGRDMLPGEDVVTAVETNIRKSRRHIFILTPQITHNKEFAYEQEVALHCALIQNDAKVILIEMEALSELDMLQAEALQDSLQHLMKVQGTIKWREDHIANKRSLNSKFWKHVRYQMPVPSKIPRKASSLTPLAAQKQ

Residue numbers refer to the chain shown, from its start. No constants are given. Whether binding was seen depends on the method and setting. Some binding calls cover weakened binding; strength is not graded here.

B1: STLM213 (antibody, V domains shown)
VH: EVQLLESGGGLVQPGGSLRLSCAASGFTFSFYDMIWVRQAPGKGLEWVSTIRGEGGDTNYADSVKGRFTISRDNSKNTLYLQMNSLRAEDTAVYYCARDPWSTEGSFFVLDYWGQGTLVTVSS
VL: EIVLTQSPATLSLSPGERATLSCRASQSVDDDLAWYQQKPGQAPRLLIYDASNRATGIPARFSGSGSGTDFTLTISSLEPEDFAVYYCQQYIDAPLTFGQGTKVEIK
For the molecule B1, the binding entry in assay [1], in assay [2] and in assay [3] was “binds” each time.

B2: STLM124 (antibody, V domains shown)
VH: B1 VH with F31I, R52K, D57G, N59Y
VL: B1 VL with D93T
Regarding B2, in assay [2], the binding result was “binds”.

B3: STLM221 (antibody, V domains shown)
VH: B1 VH with F31I, I35F, T50Y
VL: B1 VL with D93G, L96I
B3: the binding result in assay [2] is recorded as “binds”.

B4: STLM217 (antibody, V domains shown)
VH: B1 VH with F31V, I35F, T50D, R52K, D57E, N59S
VL: B1 VL with D93G, L96I
Take B4: the binding entry in assay [2] is “binds”.

B5: STLM215 (antibody, V domains shown)
VH: B1 VH with F31S, I35F, T50A, R52A, D57R, N59Y
VL: B1 VL with D93G, L96I
Turning to B5, the binding entry in assay [2] was “binds”.

B6: STLM214 (antibody, V domains shown)
VH: B1 VH with F31S, I35F, T50D, R52K, D57R, N59A
VL: B1 VL
As to B6, in assay [2], the binding result is recorded as “binds”.

B7: STLM107 (antibody, V domains shown)
VH: B1 VH with F31D, D33A, I35F, T50A, R52E, D57E
VL: B1 VL with D93G, L96I
Turning to B7, in assay [2], the binding entry is “binds”.

B8: STLM219 (antibody, V domains shown)
VH: B1 VH with F31G, I35F, T50D, R52G, D57S
VL: B1 VL with D93G, L96I
B8: the binding entry in assay [2] was “binds”.

B9: STLM218 (antibody, V domains shown)
VH: B1 VH with F31V, Y32D, D33S, I35F, T50S, R52E, E54N, D57A, N59Y
VL: B1 VL with D93G, L96I
With B9, the binding result in assay [2] is recorded as “binds”.

B10: STLM211 (antibody, V domains shown)
VH: B1 VH with F31G, D33A, T50Y, R52E, D57E, N59Y
VL: EIVLTQSPATLSLSPGERATLSCRASQSVDDDLAWYQQKPGQAPRLLIYDASNRATGIPARFSGSGSGTDFTLTISSLEPEDFAVYYCQQYNDAITFGQGTKVEIK
Take B10: the binding entry in assay [2] is given as “binds”.

B11: STLM209 (antibody, V domains shown)
VH: B1 VH with F31I, D57G, N59S
VL: B1 VL with D93T
For the molecule B11, the binding result in assay [2] is “binds”.

B12: STLM212 (antibody, V domains shown)
VH: B1 VH with F31V, D57G, N59Y
VL: B10 VL
Regarding B12, the binding entry in assay [2] is “binds”.

B13: STLM216 (antibody, V domains shown)
VH: B1 VH with F31S, I35F, T50D, R52K, D57A
VL: B1 VL with D93G, L96I
Regarding B13, the binding result in assay [2] was “binds”.

B14: STLM210 (antibody, V domains shown)
VH: B1 VH with F31D, Y32D, D33A, T50Y, R52G, E54N, D57T, N59Y
VL: B10 VL
For B14, the binding result in assay [2] is reported as “binds”.

B15: STLM222 (antibody, V domains shown)
VH: B1 VH with F31I, D33S, I35F, T50D, R52G, D57G, N59S
VL: B1 VL with D93G, L96I
Regarding B15, the binding entry in assay [2] is listed as “binds”.

B16: STLM207 (antibody, V domains shown)
VH: B1 VH with F31S, D57T, N59A
VL: B1 VL with D93T
With B16, the binding result in assay [2] was “binds”.

B17: STLM108 (antibody, V domains shown)
VH: B1 VH with F31I, R52K, D57G, N59Y
VL: B1 VL with D93G, L96I
As to B17, in assay [2], the binding entry is “binds”.

B18: STLM103 (antibody, V domains shown)
VH: B1 VH with I35F, T50S, D57R, N59D
VL: B1 VL with D93G, L96I
Take B18: the binding result in assay [2] is “binds”.

B19: STLM220 (antibody, V domains shown)
VH: B1 VH with I35F, T50D, D57G, N59A
VL: B1 VL with D93G, L96I
As to B19, the binding entry in assay [2] was “binds”.

B20: STLM206 (antibody, V domains shown)
VH: B1 VH with F31I, D57S, N59Y
VL: B1 VL with D93T
notes: IgG; VH3-23 / Vk-L6 frameworks
In the case of B20, the binding result in assay [2] was “binds”.

For the origin of these results see patent publication US20130336980A1 (Janssen / Centocor, published 2013).
